Data taken from PubChem BioAssay AID485314 (National Center for Advancing Translational Sciences (NCATS), 2010).
Screen size: about 340,000 compounds; about 4,500 (1.3%) were called active. Inconclusive results, whose numbers are uncertain, are shown with a selection of clear calls. Calls come from the whole dose curve; as a rule, active = well fitted inhibition curve with a large enough effect; inconclusive = small, poorly fitted or top-dose-only effect, or another doubt; inactive = no such curve, though single readings can be large or run the other way. Potencies beside an inconclusive call are fits to weak or partial responses and may not hold up.

Molecular target: DNA polymerase beta (Homo sapiens) (UniProt P06746)
Experiment: qHTS Assay for Inhibitors of DNA Polymerase Beta
Conditions: Pol beta primer extension/strand displacement, fluorescence kinetic; activity change, negative = inhibition: at 114 µM (top of the series)
Outline: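 Enzyme-only controls used 10 nM Pol beta; buffer lacking enzyme served as negative control. Compound preincubated 15 min, then 50 nM substrate added; 0 and 10 min reads at room temperature.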
% is set by controls: 0 for no effect and ±100 for the full control effect; potency is the fitted concentration of half-maximal effect.

Potency, active:
COc1ccc(S(=O)(=O)/N=C2\C=C(NS(=O)(=O)c3ccccc3)C(=O)c3ccccc32)cc1 79.4 µM
Cc1ccccc1N=Cc1cccc(O)c1O 3.55 µM
Cn1c2ccccc2c2cc(/C=N/NC(=O)c3cc(O)cc(O)c3)ccc21 89.1 µM
O=C(N/N=C/c1cc(Cl)c(O)c(Cl)c1)c1cc2c(ccc3ccccc32)o1 28.2 µM
Brc1ccc(-c2nn3c(-c4ccccn4)nnc3s2)o1 22.4 µM
Cc1cc(C)nc(SCC(=O)c2ccc(O)c(O)c2)n1 4.47 µM
CCCCCOc1ccc(/C=C/C(=O)NCCc2nc3ccccc3[nH]2)cc1OC 15.8 µM
CC(C)NC(=O)COC(=O)/C=C/c1ccco1 39.8 µM
Cc1cc(/C=c2\sc3nc4ccccc4n3c2=O)c(C)n1-c1ccc(C(=O)O)cc1 22.4 µM
Cc1c(C(=O)OCc2ccccc2)[nH]c2c1C(=O)CC(c1ccco1)C2 (stereo unspecified) 11.2 µM
O=C(O)c1ccc2c3c(cccc13)C(=O)N(c1ccccc1)C2=O 20 µM
COc1cccc(N2CC(C(=O)Nc3nnc(SCc4cccnc4)s3)CC2=O)c1 (stereo unspecified) 25.1 µM
COc1ccc(OC)c(S(=O)(=O)Nc2ccc(O)c(Sc3ncn[nH]3)c2)c1 79.4 µM
CCOc1ccccc1-c1c2cc(O)c(=O)cc-2oc2cc(O)c(O)cc12 1.58 µM
CCOc1ccc(Br)cc1C1=NN(C(C)=O)C(c2ccc([N+](=O)[O-])s2)O1 (stereo unspecified) 17.8 µM

Potency, inactive:
COc1ccc(NC(=O)NC(C)c2c(-n3cccc3)sc(C)c2C)cc1OC (stereo unspecified)
Cc1cccc(NC(=O)CCCn2nc(C)c3c(C)n(-c4ccccc4)nc3c2=O)c1C
O=C(CCC1CCCN(C(=O)c2cccnc2)C1)NCc1ccccc1F (stereo unspecified)
CN(C(=S)NC(=O)c1ccc(F)cc1)C1CCCCC1
COc1ccc(-c2nnn3c2nc(NCCc2ccc(OC)c(OC)c2)c2ccccc23)cc1
CC(=O)Nc1cc2c(cc1NC(=O)Cn1nc(-c3ccccc3)ccc1=O)OCCO2
CC1=NN(Cc2ccccc2)C(=O)C1C(c1ccc(Cl)cc1)C(C#N)C#N (stereo unspecified)
O=C(O)c1ccccc1NS(=O)(=O)c1cccc(C(F)(F)F)c1
CC(=O)Nc1cc2c(cc1C(=O)c1ccccc1)OCCO2
N=c1ccn2c(n1)O[C@H]1[C@@H](O)[C@@H](CO)O[C@H]12
CCCCc1ccc(NC(=O)Cn2cnc3c(oc4ccccc43)c2=O)cc1
C=CCN(CC=C)CCOc1cccc(Oc2ccccc2)c1
O=C(Nc1ccccc1Cl)NC1(C(=O)NCc2ccncc2)CCCCC1

3 compounds from above, sorted by molecular weight, rising.
Potency, inactive:
C=CCN(CC=C)CCOc1cccc(Oc2ccccc2)c1
COc1ccc(NC(=O)NC(C)c2c(-n3cccc3)sc(C)c2C)cc1OC (stereo unspecified)
CC(=O)Nc1cc2c(cc1NC(=O)Cn1nc(-c3ccccc3)ccc1=O)OCCO2

Next part.

Potency, inconclusive:
Cc1ccc(-c2cc(C(=O)NCc3ccc4c(c3)OCO4)[nH]n2)c(O)c1C 8.91 µM [inhibitor, partial curve, poor fit]
Nc1cc2ccccc2oc1=O 0.141 µM [inhibitor, full curve, poor fit]
Cc1ccc(Nc2c3c(nc4ccccc24)CCC3)cc1 89.1 µM [inhibitor, single point]
O=C(O)CCn1c(C2CCCCC2)nc2ccccc21 39.8 µM [inhibitor, partial curve]
CCN(C)c1ccc(/C=N\n2nnnc2N)cc1 44.7 µM [inhibitor, partial curve]
Cc1ccc(Cl)cc1NC(=O)CCn1cccc1 39.8 µM [inhibitor, partial curve]
O=C(Nc1nnc(S(=O)(=O)N2CCN(c3ccc(F)cc3)CC2)s1)c1ccco1 0.316 µM [inhibitor, full curve, poor fit]
CCOC(=O)C(C)Sc1nnc2cc(C)c3ccccc3n12 (stereo unspecified) 100 µM [inhibitor, single point]
COc1ccc2[nH]c3c(NCCN4CCCCC4)ncnc3c2c1 35.5 µM [inhibitor, full curve]
CCCOc1ccc2c3c(c(=O)oc2c1OCCC)CCC3 89.1 µM [inhibitor, single point]
Cc1cc(Oc2ccc(N)cn2)ccc1Cl 0.141 µM [inhibitor, full curve, poor fit]
CSc1ccc(NC(=O)c2cccnc2)cc1C#N 44.7 µM [inhibitor, partial curve]
COc1ccc([C@]23Cc4cc(C#N)ccc4C(O2)c2c(cc(-c4ccccc4)oc2=O)O3)cc1 15.8 µM [inhibitor, single point]
Cc1cc(C)c(C)c(S(=O)(=O)NCc2ccc(C(=O)N3CCN(C)CC3)cc2)c1C 39.8 µM [inhibitor, single point]
COc1ccc(N(CC(=O)Nc2ccccc2C(=O)O)S(=O)(=O)c2ccc(C)c([N+](=O)[O-])c2)cc1 89.1 µM [inhibitor, single point]
Cc1nn2c(=O)cc(COc3ccc(/C=C(\C#N)C(=O)Nc4ccccc4C)cc3)nc2s1 2.51 µM [inhibitor, full curve, poor fit]
Cc1ccc(C(=O)N/N=C\c2ccc[nH]2)cn1 89.1 µM [inhibitor, single point]
Oc1c(Br)cc(Br)cc1C=NCc1ccc(F)cc1 89.1 µM [inhibitor, single point]
CCCS(=O)(=O)c1nc(S(=O)(=O)c2ccc(C)cc2)c(NCCN2CCOCC2)s1 39.8 µM [inhibitor, single point]
O=[N+]([O-])c1ccc(NC2CCCC2)cc1 4.47 µM [inhibitor, full curve]
COc1ccc(C)cc1NC(=O)CSc1nc(=O)n(Cc2ccco2)c2c1CCC2 31.6 µM [inhibitor, full curve]
CC(C)n1cc(/C=N/NC(=O)COc2cccc3cccnc23)c2ccccc21 22.4 µM [inhibitor, partial curve]
CN1C(=O)c2ccccc2Sc2ccc(NC(=O)Cc3ccc(Cl)cc3)cc21 10 µM [inhibitor, partial curve]
O=C(NNC(=O)c1cccc(Br)c1)Nc1ccc(Cl)cc1 0.447 µM [inhibitor, full curve, poor fit]
CCOc1ccc(CC(=O)Nc2cc(=O)n(C)c(=O)n2C)cc1 17.8 µM [inhibitor, partial curve]
Cc1ccc(C23CC4CC(CC(C(=O)NC(C(=O)O)C(C)C)(C4)C2)C3)cc1 (stereo unspecified) 6.31 µM [inhibitor, full curve, poor fit]
Cc1ccc(-c2cc(C(=O)N/N=C/c3cccnc3)n[nH]2)o1 31.6 µM [inhibitor, partial curve]
Cc1noc(C)c1S(=O)(=O)N1CCC(C(=O)N2CCN(C(=O)c3ccco3)CC2)CC1 0.141 µM [inhibitor, full curve, poor fit]
O=C(c1c(F)cccc1F)N1CCCC(c2nc(-c3ccc(F)cc3)no2)C1 (stereo unspecified) 70.8 µM [inhibitor, single point]
Cc1c(NC(=O)/C(C#N)=C/c2ccc(-c3cc(Cl)ccc3Cl)o2)c(=O)n(-c2ccccc2)n1C 63.1 µM [inhibitor, single point]
COc1ccc(C(=O)Nc2ccc(NC(=O)c3ccco3)c(Cl)c2)cc1OC 39.8 µM [inhibitor, full curve, poor fit]
CCCCSc1nnc2[nH]c(=O)cc(N)n12 100 µM [inhibitor, partial curve]
Cc1coc2c(C)c3oc(=O)c(CCC(=O)NCCc4ccc(Cl)cc4)c(C)c3cc12 39.8 µM [inhibitor, partial curve]
CCc1ccc(CNC(=O)c2ccc(-c3nc(CS(=O)(=O)c4ccccc4)c(C)o3)cc2)cc1 79.4 µM [inhibitor, single point]
Nc1nc(NCCCN2CCOCC2)nc(Nc2cccc(F)c2)c1[N+](=O)[O-] 15.8 µM [inhibitor, full curve, poor fit]
CC1Cc2ccccc2N1C(=O)Cn1nnc(-c2ccccc2NC(=O)C2CCC2)n1 (stereo unspecified) 89.1 µM [inhibitor, single point]
O=S(=O)(c1ccc2ccccc2c1)N(CC1CO1)c1ccccc1 (stereo unspecified) 89.1 µM [inhibitor, single point]
CCN(CC)S(=O)(=O)c1cc(-c2onc(C)c2C)ccc1OC 79.4 µM [inhibitor, single point]
COc1ccc(C(=O)NCC(=O)OCC(=O)Nc2sccc2C#N)cc1OC 31.6 µM [inhibitor, full curve]

Activity change, negative = inhibition, inactive:
Cc1cc2c(c(=O)o1)C1O[C@](c3ccsc3)(Cc3ccccc31)O2 1.24% [at 22.9 µM]

Activity change, negative = inhibition, inconclusive:
Cc1ccccc1Nc1nc(N2CCOCC2)nc(N2CCOCC2)n1 -43.9% [inhibitor]
COC(=O)Cc1[nH]nc2c1C(c1cc(OC)c(OC)c(OC)c1)C(C#N)=C(N)O2 (stereo unspecified) -35.2% [inhibitor]
Cc1cc(SCc2ccccc2F)nc(=O)[nH]1 -80.2% [inhibitor]
